# Experimental data published in PubChem BioAssay AID493014 (National Center for Advancing Translational Sciences (NCATS), 2011).
# About 170 (0.05%) of roughly 340,000 compounds were called active. The inconclusive results got no clear call from the source; some entries with a clear call stand among them for comparison. Calls follow the shape of the dose curve; as a rule, active = well fitted inhibition curve with a large enough effect in the signal ratio, with a control signal flat (not every such curve was filed as active); inconclusive = small, poorly fitted or top-dose-only effect, or effect the other way, or a change in a side signal; inactive = flat fitted curve, though single readings scatter; the % refers to the signal ratio. Where the call is inconclusive, the potency comes from a doubtful curve fit.
# Assay: qHTS Assay to Find Inhibitors of Chronic Active B-Cell Receptor Signaling;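 as to activity change, negative = inhibition: plate controls were basal doxycycline-induced cells for no effect and cells given 10 µM MG132 for full effect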
# Conditions: ABC-DLBCL IkBa-CBG/CBR reporter, luminescence ratio (green luciferase fused to IkBa over red control in TMD8 lymphoma cells), 4 h; activity change, negative = inhibition: at 46.1 µM (top of the series)
# Summary of the method: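 Concentration-response series (up to 46 uM) were applied to TMD8 dual-reporter cells for 4 h at 37C with doxycycline. Green/red ratio, after filter-overlap correction, defined %Activity; red signal alone was normalised to basal cells and zero luminescence.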
# Potency is read from the fitted curve at half-maximal effect.
SMILES,Potency,"activity change, negative = inhibition"
Cn1c2cc(B(O)O)sc2c2cnn(Cc3ccc(F)cc3F)c(=O)c21,"inconclusive: 7.31 µM [falling, partial curve, poor fit]",–
Cc1ccc(NC(=S)N2CCCCCC2)cc1,–,inactive
CCOc1ccc(-n2c(C)nc3cc(C(=O)NCCCN4CCOCC4)ccc32)cc1,–,inactive
COc1cc(/C=N/Nc2ccc(C(=O)O)cc2)ccc1O,–,inconclusive: -5.99%
O=C(CCN1C(=O)COc2ccccc21)NCCN1CCN(c2cccc(Cl)c2)CC1,–,inactive
N#Cc1cnn2c(C(F)(F)F)cc(-c3ccccc3)nc12,–,inconclusive: 1.44%
CCCc1[nH]nc2c1C(C1CCCCC1)C(C#N)=C(N)O2 (stereo unspecified),–,inconclusive: -24.9%
Nn1c(SCC(=O)NCCC2=CCCCC2)nnc1C(F)(F)F,–,inconclusive: 16.2%
COc1cc(OC)c(-c2c3cc(O)c(=O)cc-3oc3cc(O)c(O)cc23)cc1OC,"inconclusive: 7.31 µM [rising, partial curve]",–
COc1ccc(CNC(=O)C(C)n2ccc3cc(S(=O)(=O)N4CCCCCC4)ccc32)cc1 (stereo unspecified),–,inconclusive: 0.0889%
COC(=O)c1ccc(Oc2cc(C)nc(-n3nc(C)cc3C)n2)cc1,"inconclusive: 8.91 µM [falling, partial curve, poor fit]",–
COc1ccc2nc(-n3c(C)ccc3C)sc2c1,"inconclusive: 16.4 µM [falling, partial curve, poor fit]",–
CSCCC(N=C(NS(=O)(=O)c1ccc(C)cc1)c1ccccc1)C(=O)O (stereo unspecified),–,inconclusive: 16.8%
O=C(O)C1CCCCC1C(=O)NCCc1ccncc1 (stereo unspecified),–,inconclusive: -7.79%
Cc1ccc(S(=O)(=O)N2CCC(C(=O)Nc3ncccc3O)CC2)cc1,–,inactive
CC1(NC(=O)Nc2cc([N+](=O)[O-])ccc2O)CCS(=O)(=O)C1 (stereo unspecified),–,inconclusive: 2.85%
Nc1cccc(-c2cc3ccccc3oc2=O)c1,–,inconclusive: -17.9%
C/C(=N\OCC(=O)Nc1ccc(OC(F)(F)F)cc1)c1ccc2c(c1)OCCO2,–,inconclusive: -0.848%
CC(C)Cc1nc(N2CCN(C(=O)Cc3ccccc3)CC2)c(C#N)c2c1COC(C)(C)C2,–,inactive
CC(=O)c1c(C)[nH]c(C(=O)Nc2ccc(C)c(C)c2)c1C,–,inconclusive: 22.5%
N/C(Cc1ccc(Cl)cc1Cl)=N\OC(=O)c1cccs1,–,inconclusive: 7.34%

# Two compounds picked at random from those above:
SMILES,Potency,"activity change, negative = inhibition"
CSCCC(N=C(NS(=O)(=O)c1ccc(C)cc1)c1ccccc1)C(=O)O (stereo unspecified),–,inconclusive: 16.8%
Nc1cccc(-c2cc3ccccc3oc2=O)c1,–,inconclusive: -17.9%

# (listing goes on)

SMILES,Potency,"activity change, negative = inhibition"
Cc1ccc(-n2nnnc2SCC(=O)Nc2ccc3c(c2)OCCO3)cc1C,–,inconclusive: 24.8%
COc1ccc(/C=N/NC(=O)c2ccc3nc[nH]c3c2)cc1,"inconclusive: 4.47 µM [falling, partial curve]",–
CC1C(=O)NN=C1C(=O)N/N=C\c1ccc(O)cc1O (stereo unspecified),"inconclusive: 5.8 µM [falling, partial curve]",–
Cc1c(CCC(=O)N2CCC(C(=O)O)CC2)c(=O)oc2cc3oc4c(c3cc12)CCCC4,"inconclusive: 12.6 µM [falling, partial curve]",–
COc1ccc(CNC(=O)CCCc2cn(C)c3ccccc23)c(OC)c1,–,inconclusive: -43.4%
O=C(O)CCc1ccc(-c2cccs2)n1NC(=O)c1ccc(O)cc1,"inconclusive: 20.6 µM [falling, partial curve]",–
Cc1ccc(C)c(-c2cc(C(=O)N/N=C/c3cccnc3)c3ccccc3n2)c1,–,inactive
Cc1cc(=O)[nH]c(N/N=C/c2cn(CCC#N)nc2-c2ccccc2)n1,–,inconclusive: 9.36%
O=C(Nc1cccc(C(F)(F)F)c1)c1cc(Br)cc2c1OCC2,–,inconclusive: 16.4%
COc1ccc(C)cc1NC(=O)n1ncc2c(C)cccc21,–,inactive
CC(CN1CCCCC1)OC(=O)Cc1ccc(Cl)cc1 (stereo unspecified),–,inactive
COc1ccc(CC2(CO)CCN(Cc3cccc4nccnc34)CC2)cc1,"inconclusive: 22.4 µM [cytotoxic, partial curve]",–
COc1cccc(NC(=O)c2ccc(S(=O)(=O)N3CCCCC3)cc2)c1,–,inconclusive: 13.3%
O=C(NCCCc1ccccc1)C1CCC(=O)N(Cc2ccc(Cl)cc2)C1 (stereo unspecified),–,inactive
COc1ccc2cc(C(=O)Nc3ccccc3)sc(=O)c2c1OC,–,inconclusive: 6.58%
CC(C)(C)C(=O)N1CCN(c2ccc(NC(=O)c3ccc([N+](=O)[O-])o3)cc2)CC1,"inconclusive: 5.62 µM [falling, partial curve]",–
CCOC(=O)C1=C(N)OC2=C(C(=O)CC(C)(C)C2)C1c1ccccc1OCC#N (stereo unspecified),–,inconclusive: 9.67%
COc1ccc(NC(=O)CSc2nncc3ccccc23)cc1,"inconclusive: 35.5 µM [falling, single point]",–
Cn1nnnc1N=N/C(=N/Nc1ccccc1)c1ccccc1,"inconclusive: 11.2 µM [falling, partial curve]",–
CC1(c2ccc3c(c2)OCCO3)NC(=O)N(CC(=O)Nc2ccccc2F)C1=O (stereo unspecified),–,inconclusive: 0.694%
COc1ccc(OC(=O)COc2cc(C)ccc2C)cc1,–,inconclusive: 5.38%

# Entries from the list above with a Cl atom:
SMILES,Potency,"activity change, negative = inhibition"
O=C(CCN1C(=O)COc2ccccc21)NCCN1CCN(c2cccc(Cl)c2)CC1,–,inactive
N/C(Cc1ccc(Cl)cc1Cl)=N\OC(=O)c1cccs1,–,inconclusive: 7.34%
CC(CN1CCCCC1)OC(=O)Cc1ccc(Cl)cc1 (stereo unspecified),–,inactive
O=C(NCCCc1ccccc1)C1CCC(=O)N(Cc2ccc(Cl)cc2)C1 (stereo unspecified),–,inactive

# Next part.

SMILES,Potency,"activity change, negative = inhibition"
CSc1sc(C(=O)NC(=O)NCc2ccncc2)c(C)c1-c1ccon1,"inconclusive: 14.1 µM [falling, partial curve, poor fit]",–
COc1ccc(CC(=O)Nc2nc(-c3ccccc3)c(C(C)=O)s2)cc1OC,"inconclusive: 15.8 µM [falling, partial curve]",–
O=C(C[C@H]1C/C=C\C[C@@H](Cc2ccc(F)cc2)C(=O)OC[C@H]2CCCN2C1=O)N[C@@H](CO)Cc1ccccc1,–,inactive
S=C(NCCc1ccccc1)N/N=C/C1CCCCC1,–,inconclusive: -12.9%
COCc1nc2c([nH]1)c(=O)n(C)c(=O)n2CC(C)C,–,inconclusive: 5.73%
Cc1ccccc1C(=O)Nc1nnc(-c2ccc(C(C)(C)C)cc2)s1,–,inactive
CCOC(=O)CSC1=Nc2ccccc2C2=NC(CC(=O)NCc3ccc(OC)cc3)C(=O)N12 (stereo unspecified),–,inactive
O=C(c1cccs1)n1nc(-c2cccnc2)nc1NCc1ccco1,–,inconclusive: 0.0312%
CCCC[n+]1ccn(-c2nc3ccccc3nc2[N-]S(=O)(=O)c2ccc(Br)cc2)c1,–,inconclusive: 23.5%
Cn1c(NC(=O)C2CCCC2)cc(=O)n(C)c1=O,–,inactive
O=S(=O)(Nc1cccc(-c2nnco2)c1)c1ccc(F)cc1F,–,inconclusive: -6.04%
CCOC(=O)c1sc(NC(=O)CSc2ncccn2)nc1C,"inconclusive: 11.2 µM [falling, single point]",–
O=C(Nc1cccc(F)c1)N1CCN(C(=O)c2ccco2)CC1,–,inconclusive: 7.32%
CCOc1ccc(CCNc2nc3c(c(=O)n(C)c(=O)n3C)n2CC)cc1OCC,–,inconclusive: 12.6%
Oc1ccc(/C=N/Nc2nccnc2Cl)c(O)c1,"inconclusive: 7.31 µM [falling, partial curve]",–
Cc1ccc(Nc2ncc3c(n2)CC(C)(C)CC3=O)cc1,–,inactive
COc1ccccc1N1CCN(C(=O)c2oc3ccc(Br)cc3c2C)CC1,–,inactive
COC(=O)c1cc2occc2n1Cc1ccc(Cl)cc1,–,inactive
COC(=O)c1cc(C(=O)OC)cc(N2C(=O)CC(NNC(=O)c3ccccc3Br)C2=O)c1 (stereo unspecified),"inconclusive: 20 µM [falling, partial curve, poor fit]",–
COc1ccc(NCc2cc3ccccc3[nH]c2=O)cc1,–,inconclusive: -21.1%
CCCN(Cc1nnc(-c2ccccc2Cl)o1)C(=O)c1oc2ccccc2c1C,"inconclusive: 18.4 µM [falling, single point]",–

SMILES,Potency,"activity change, negative = inhibition"
Cc1csc(NC(=O)Cc2coc3cc(C)c(C(C)C)cc23)n1,–,inconclusive: 17.1%
O=C(NC(CO)(CO)CO)c1coc(=O)c(Br)c1,"inconclusive: 20 µM [falling, partial curve]",–
O=C(NCC(O)c1ccc2ccccc2c1)c1c(F)cccc1F (stereo unspecified),"inconclusive: 22.4 µM [falling, single point]",–
COc1ccc(C(=O)N/N=C(\c2ccccc2)c2ccccn2)cc1,–,inactive
Cc1cc(O)cc2c1C(=O)/C(=C/c1ccco1)O2,–,inconclusive: 4.05%
CC(C)N(Cc1cc2ccccc2[nH]c1=O)C(=O)c1ccco1,–,inconclusive: -14.4%
CCCOC(=O)c1ccc(NC(=O)C2CCCO2)cc1 (stereo unspecified),–,inconclusive: -0.346%
CCOC(=O)c1ccccc1N1C(=O)CSC1=S,–,inconclusive: -78.3%
Cn1c(=O)c2c(ncn2Cc2cccc(Cl)c2)n(C)c1=O,–,inconclusive: 0.467%
Cc1ccc(NC(=O)c2ccc([N+](=O)[O-])s2)cc1S(=O)(=O)N1CCOCC1,–,inactive
O=C(Nc1ccc(N2CCOCC2)c(C(=O)O)c1)c1ccco1,"inconclusive: 18.4 µM [falling, single point]",–
CC(=O)Oc1c(Br)cc(N(C(C)=O)S(=O)(=O)c2ccccc2)c2ccccc12,"inconclusive: 35.5 µM [falling, partial curve, poor fit]",–
COc1ccccc1Nc1ncnc2c1c(C)c(C)n2CCCN(C)C,–,inactive
Cc1ccc2c(CSc3nncs3)cc(=O)oc2c1,–,inconclusive: 4.29%
CCCn1c(SCC(=O)Nc2c(C)cccc2CC)nnc1C(C)C,–,inconclusive: 0.649%
CC(=O)n1cc([C@H]2C=C(C(=O)Nc3ccccc3)O[C@@H](OCc3ccc(CO)cc3)C2)c2ccccc21,"inconclusive: 35.5 µM [falling, single point]",–
O=C1NCC(O)=C1C=NC12CC3CC(CC(C3)C1)C2,"inconclusive: 2.59 µM [rising, partial curve, poor fit]",–
Cc1nc(N2CCOCC2)c(C#N)c2c1COC(C)(C)C2,–,inconclusive: -0.331%
